PubChem BioAssay AID1508597 | Cure First, 2020
Test: 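Genes whose silencing sensitises or protects ovarian cancer cells against rucaparib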 (primary screen). System: human ovarian carcinoma lines grown from tumours: OCI-P5x (papillary serous) and OCI-C5x (clear cell). Knock-down reagent: siRNA pool against human genes, 1.25 pmol siRNA per well. Duration: 72 h or 96 h, depending on the cell culture. Treatment: rucaparib 20 µM (about IC30) or vehicle, present until read-out. Rucaparib or vehicle: Rucaparib. Cell line: OCI-C5x (clear cell). Detection: 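ATP luminescence measured at 72 or 96 h according to the culture, then normalised and expressed as percent viability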. Direction: viability, normalised: higher = more viable cells remaining. Call rule: 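a well counts as a hit if its normalised viability is under 80 percent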. Calls: active = viability under 80%; inactive = viability 80% or more.
Shown is an unselected part of the about 2,100 reagents, in one setting of the screen. 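Calls flag viability under 80% in either arm, not effects specific to rucaparib; the reference for percent is not stated.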 Some reagents were tested in more than one well and are listed for each. Reagent sequences are not shown. Not stated in the record: the 100% reference.

no.	Gene	technical replicate	viability, normalised (%)	activity call
1	MAGI2	1	35.2	active
2	MAGI2	2	41.9	active
3	MAGI2	3	42.4	active
4	MAPK8	1	62.2	active
5	MAPK8	2	51.9	active
6	MAPK8	3	53.7	active
7	MTA1	1	26.2	active
8	MTA1	2	35.4	active
9	MTA1	3	38.3	active

3 entries from above, arranged by “viability, normalised (%)”, highest first:
Gene	technical replicate	viability, normalised (%)	activity call
MAPK8	1	62.2	active
MAGI2	3	42.4	active
MAGI2	2	41.9	active

The list goes on:
no.	Gene	technical replicate	viability, normalised (%)	activity call
10	YES1	1	41.7	active
11	YES1	1	51.3	active
12	YES1	2	44.4	active
13	YES1	2	51.7	active
14	YES1	3	46.1	active
15	YES1	3	38.5	active
16	RAG2	1	40.7	active
17	RAG2	2	35.9	active
18	RAG2	3	37	active
19	DHX36	1	38.6	active
20	DHX36	2	34.7	active
21	DHX36	3	57	active
22	LYN	1	36.3	active
23	LYN	2	45.5	active
24	LYN	3	45.8	active
